PubChem BioAssay AID504444 (National Center for Advancing Translational Sciences (NCATS), 2011)
In all, about 360,000 compounds went through this assay and about 7,500 (2.1%) were called active. Inconclusive means that the source gave no clear call. Such entries were picked first, then a sample of the others. Calls follow the shape of the dose curve; as a rule, active = well fitted inhibition curve with a large enough effect; inconclusive = small, poorly fitted or top-dose-only effect, or effect the other way; inactive = flat fitted curve, though single readings scatter. Potencies of inconclusive entries are doubtful fits and often do not repeat.

Assay: Nrf2 qHTS screen for inhibitors; also: nearly all actives have a fitted effect of over 60% in size
Settings: A549 ARE-Fluc reporter, luciferase luminescence, 18-24 h; series mostly up to 46 µM
Outline: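 In this cell-based qHTS, ARE-driven firefly luciferase in A549 cells reports Nrf2 activity; the luminescent signal after BugLite lysis is the measured value, with a prior CellTiter-Fluor read for cell health.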
Potency is read from the fitted curve at half-maximal effect.

| SMILES | Potency |
| --- | --- |
| CC(CC(=O)Nc1ccc2c(c1)OCCO2)c1ccccc1 (stereo not drawn) | inconclusive: 16.4 µM [activator, partial curve] |
| COc1cc(/C=C2/C(=O)CNC2=O)ccc1O | inactive |
| CC(=O)CSc1nnc2cc(C)c3cc(C)cc(C)c3n12 | inactive |
| CCc1c(C)[nH]c(C(=O)OCc2ccccc2)c1C | inconclusive: 20.6 µM [activator, single point] |
| Cc1nn(C(C)C(=O)N2CCN(c3ccc(Cl)cc3)CC2)c(=O)c2cc3occc3n12 (stereo not drawn) | active: 20.6 µM |
| CN(C(=O)c1cccc(NC(=O)Cc2cccc(NC(=O)C3CCCN(C(=O)C4CCCC4)C3)c2)c1)C1CCC1 (stereo not drawn) | inconclusive: 16.4 µM [falling, single point] |
| COc1ccc(Cn2c(=S)[nH]c3ccccc32)cc1 | inactive |
| Nc1nc(CN2CCN(c3ccccn3)CC2)nc(Nc2ccc(F)cc2)n1 | inconclusive: 13 µM [falling, partial curve, poor fit] |
| COC(=O)CNC(=O)COC(=O)/C=C/c1ccccc1[N+](=O)[O-] | inactive |
| C=CCC(=O)N1CCCC(CCC(=O)NCc2ccccc2F)C1 (stereo not drawn) | inconclusive: 29.1 µM [activator, partial curve, poor fit] |
| CCC(C)Nc1nc(N)c([N+](=O)[O-])c(N2CCCCCC2)n1 (stereo not drawn) | inconclusive: 23.1 µM [falling, single point] |
| NC(=O)c1c(NC(=O)CSc2nnc(-c3ccco3)n2-c2ccccc2)sc2c1CCC2 | inconclusive: 16.4 µM [falling, single point] |
| O=C(/C=C/Nc1ccccc1Br)c1ccccn1 | inconclusive: 18.4 µM [falling, single point] |
| CCOC(=O)C1CCN(C(=O)c2sc3ncnc(N4CCC(C)CC4)c3c2C)CC1 | inconclusive: 23.1 µM [activator, partial curve, poor fit] |
| O=C(NCCN1CCCCC1)c1ccc(Oc2cc(Cl)cc(Cl)c2)o1 | inactive |
| N#Cc1ccc(S(=O)(=O)N2CCCN(c3nc4ccc(Cl)cc4s3)CC2)cc1 | inconclusive: 16.4 µM [falling, single point] |
| O=C(N/N=C/c1ccc(O)cc1O)C1CC1 | inconclusive: 0.326 µM [falling, partial curve, poor fit] |
| CCCCCCOc1ccc(OC(=O)c2ccncc2)cc1 | inconclusive: 0.731 µM [falling, full curve, poor fit] |
| COC(=O)[C@H](CCSC)NC(=O)N1CCN(c2cccc(C(F)(F)F)c2)CC1 | inconclusive: 29.1 µM [falling, single point] |
| Cc1ccc(OC(=O)N2CCOCC2)cc1 | inconclusive: 23.1 µM [activator, single point] |
| Cc1oc2ncnc(N3CCCCC3)c2c1C(=O)N1CCN(c2cccc(Cl)c2)CC1 | inactive |
| CCCN1C(=O)C2(c3ccccc31)c1c(oc3ccc(F)cc3c1=O)C(=O)N2CCCOC(C)C (stereo not drawn) | inactive |
| CC(C)C(=O)N1CCN(c2nc(-c3ccc(Cl)cc3)cs2)CC1 | inconclusive: 18.4 µM [falling, single point] |

| SMILES | Potency |
| --- | --- |
| CCOc1ccc(Br)cc1S(=O)(=O)Nc1ccc(Cl)c(S(=O)(=O)N(CC)c2ccccc2)c1 | inconclusive: 29.1 µM [falling, single point] |
| c1coc(-c2nc3n(n2)C2(CCCCC2)[C@@H]2CCCC[C@@H]2N3)c1 | inconclusive: 7.31 µM [activator, partial curve, poor fit] |
| CN(C(=O)CSc1nnc(-c2ccccc2F)o1)C1CCCCC1 | inactive |
| CC(=O)Nc1ccc(NC(=O)COc2cc(O)c3c(c2)OC(C)(C)CC3=O)cc1 | inconclusive: 29.1 µM [activator, single point] |
| Cn1cccc1C(=O)NC1CCCCCC1 | inconclusive: 4.11 µM [activator, partial curve] |
| Cc1c(Cl)cccc1NC(=S)NCCC(c1ccccc1)c1ccccc1 | inconclusive: 29.1 µM [falling, single point] |
| COc1ccc(C(=O)Cc2cc3ccccc3oc2=O)cc1 | inconclusive: 20.6 µM [activator, single point] |
| Oc1ccc(CNc2ccccc2Cl)c2cccnc12 | inconclusive: 29.1 µM [falling, single point] |
| Cc1nnc(N/N=C/c2ccc(-c3ccc(Br)cc3)o2)n1N | inactive |
| COc1ccc(C(=O)Nc2ccc3oc(-c4cccc(F)c4)nc3c2)cc1OC | inconclusive: 1.46 µM [falling, full curve] |
| CCOc1ccc(CN(C(=O)c2cc(=O)c3cc(C)cc(C)c3o2)C2CCS(=O)(=O)C2)cc1 (stereo not drawn) | inconclusive: 29.1 µM [falling, single point] |
| COc1cc(NC(=O)CCc2c(C)nc3cc(-c4ccccc4)nn3c2C)cc(OC)c1OC | active: 2.59 µM |
| Cc1ccc2c(c1)c(=O)c(C(=O)c1ccc3c(c1)OCO3)cn2Cc1ccc(Cl)cc1 | active: 23.1 µM |
| CC12CCC(C(=O)N3CCCc4ccccc43)(CC1=O)C2(C)C (stereo not drawn) | inactive |
| COc1cc(-c2ccccc2)nc(N)n1 | inconclusive: 1.3 µM [activator, full curve, poor fit] |
| COc1ccc(CNC(=O)C2CCN(S(=O)(=O)c3ccc4c(c3)CC(C)N4C(=O)C3CC3)CC2)cc1 (stereo not drawn) | inconclusive: 29.1 µM [falling, single point] |
| COc1ccc(NC(=O)CSc2nc3sc(C)c(C)c3c(=O)n2Cc2ccco2)cc1 | inconclusive: 2.06 µM [falling, partial curve, poor fit] |
| Cc1ccnc(NC(=O)c2ccc(OCC3CCCO3)cc2)c1 (stereo not drawn) | inconclusive: 1.16 µM [activator, full curve] |
| Cc1cnc(NC(=O)c2cc3ccccc3o2)s1 | inconclusive: 18.4 µM [activator, partial curve] |
| Cc1cc(Nc2ccc(Cl)cc2)nc(NCc2ccccc2)n1 | active: 16.4 µM |
| CC#CCCCC(=O)Nc1cccc(C(=O)O)c1 | inconclusive: 25.9 µM [activator, partial curve, poor fit] |
| CCN(c1ccc(OC)cc1)S(=O)(=O)c1nnc(NC(=O)COc2ccccc2)s1 | inconclusive: 16.4 µM [falling, single point] |
| Cc1ccc(N(C(=O)c2csnn2)C(C(=O)NCc2ccccc2)c2cccnc2)cc1 (stereo not drawn) | inactive |

Filtered by structure: the compounds so far containing an NH in an aromatic ring (two)

| SMILES | Potency |
| --- | --- |
| CCc1c(C)[nH]c(C(=O)OCc2ccccc2)c1C | inconclusive: 20.6 µM [activator, single point] |
| COc1ccc(Cn2c(=S)[nH]c3ccccc32)cc1 | inactive |

Later entries:

| SMILES | Potency |
| --- | --- |
| Cc1ccc(Nc2nc(N)c([N+](=O)[O-])c(NCCO)n2)cc1C | inactive |
| CCOC(=O)c1sc(NC(=S)NC(=O)c2ccccc2)nc1C | inconclusive: 7.31 µM [activator, partial curve, poor fit] |
| CCC(C)c1ccc(NC(=O)c2cccs2)cc1 (stereo not drawn) | inconclusive: 0.0366 µM [activator, full curve, poor fit] |
| CN(C)Cc1ccc(-c2nc3cccc4c3n2CCNC4=O)cc1 | inconclusive: 4.61 µM [falling, partial curve, poor fit] |
| CSc1ccc(C2NC(=O)c3ccccc3N2)cc1 (stereo not drawn) | inconclusive: 3.26 µM [falling, partial curve, poor fit] |
| NC(=O)C1CCN(C(=O)c2ccc3c(=O)n(Cc4ccco4)c(SCc4ccc([N+](=O)[O-])cc4)nc3c2)CC1 | inconclusive: 2.91 µM [falling, single point] |
| C#CCOCCOCCOCCNc1nc(N2CCN(C(=O)CCCCCCCCCCNC(=O)Cn3cc(CCCCCN)nn3)CC2)nc(N2CCN(C(=O)CCCCCCCCCCNC(=O)[C@@H](CCSC)n3cc(CCO)nn3)CC2)n1 | inconclusive: 18.4 µM [falling, single point] |
| COc1ccc(CN(C)C(=O)CCCNC(=O)c2ccc(Cl)cc2)cc1 | inconclusive: 29.1 µM [falling, single point] |
| CC(C)OC(=O)c1ccc(NC(=O)CSc2nc3ncccc3[nH]2)cc1 | inconclusive: 20.6 µM [falling, partial curve] |
| CCCc1nn(C)c(C(=O)Nc2ccc(C)c(C)c2)c1Cl | inconclusive: 13 µM [activator, partial curve, poor fit] |
| Cc1ccc(OCCCCNC2CCCC(C)C2C)c(C)c1 (stereo not drawn) | inconclusive: 16.4 µM [activator, single point] |
| COc1ccc(OC)c(NS(=O)(=O)c2ccc(-c3cc(C)no3)s2)c1 | inactive |
| Cc1cccc(C(=O)Nc2nnc(S(=O)(=O)N(C)c3ccccc3C)s2)c1 | inconclusive: 9.2 µM [activator, partial curve] |
| COc1cc(C)c(Br)cc1S(=O)(=O)NCc1ccncc1 | active: 3.26 µM |
| CC1Cc2ccccc2N1Cc1nc2cc(C(F)(F)F)ccc2c(=O)[nH]1 (stereo not drawn) | inconclusive: 10.3 µM [falling, partial curve, poor fit] |
| CCN(CC)S(=O)(=O)c1ccc(N2CCCC2)c(NS(=O)(=O)c2cccs2)c1 | inconclusive: 4.11 µM [falling, single point] |
| O=C(CCc1nnc2ccc(NCc3ccco3)nn12)Nc1cccc(F)c1 | inactive |
| Cc1cc(C)c2nc(SCCC#N)nc(C)c2c1 | inconclusive: 32.6 µM [activator, partial curve, poor fit] |
| COc1cc2c(cc1OC)CN(c1ccc(-c3ccccc3OC)nn1)CC2 | active: 18.4 µM |
| O=C(Nc1cccc(F)c1)C1CCN(S(=O)(=O)c2cccc3nsnc23)CC1 | active: 0.0082 µM |
| CN(C)c1ccc(CNC(=O)CCn2cccn2)cc1 | inconclusive: 10.3 µM [activator, single point] |
| OCCCNc1nc(-c2ccccc2)nc2c1oc1ccccc12 | inconclusive: 14.6 µM [falling, partial curve, poor fit] |
